# Experimental data published in PubChem BioAssay AID445 (National Center for Advancing Translational Sciences (NCATS), 2006).
# Some of the results follow. Further columns of the screen follow, without active or inactive calls. Most of these compounds were active or inconclusive in the main read-out, so they are no random draw. Potencies come from curve fits of mixed quality, noted in brackets.
# Assay: IkB Signaling
# Settings: ABC-DLBCL IkBa-CBG/CBR dual luciferase ratio (green luciferase fused to IkBa over red control in OCI-Ly3 lymphoma cells), 4 h
# How it was run: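 Curves were fitted separately to fusion (green), unfused (red) and ratio luminescence, then classed by r2, magnitude and activity. Cells: OCI-Ly3, 4 h compound plus doxycycline at 37C; 10 uM MG-132 defined full response.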
# [1] = measured here: control luc red channel unless noted
smiles,measurement,setting,value
CCOC(=O)c1c(-c2ccc(C)cc2C)csc1NC(=O)c1ccccc1Cl,AC50,[1],"15.8 µM [falling, partial curve]"
NC(=O)C1CCN(C(=O)c2ccc3c(c2)N(Cc2cccc(Cl)c2)C(=O)c2ccccc2S3(=O)=O)CC1,AC50,[1],"20 µM [rising, partial curve, poor fit]"
CCOC(=O)c1snc(-c2ccc(F)cc2)c1N,AC50,[1],"0.631 µM [rising, full curve, poor fit]"
Clc1ccc(OCc2nc(-c3ccccn3)n[nH]2)cc1,AC50,[1],"15.8 µM [falling, partial curve]"
NC(=O)Cn1c(=O)n(CCCCCC(=O)NCc2ccccc2Cl)c(=O)c2sccc21,AC50,[1],"0.1 µM [rising, full curve, poor fit]"
COC(=O)c1c(-c2cccs2)csc1NC(=O)COc1ccccc1,AC50,[1],"2 µM [rising, partial curve]"
CC(CNC(=O)c1ccc(Nc2nc3ccccc3n3nnnc23)cc1)c1ccccc1 (stereo unspecified),AC50,[1],"7.94 µM [falling, partial curve]"
CCC(C(=O)NCCc1ccc(SC)cc1)n1nc(C)c2c(C)n(-c3ccc(C)cc3)nc2c1=O (stereo unspecified),AC50,[1],"31.6 µM [falling, partial curve]"
COc1cc(C2CC(=O)N(CC(=O)Nc3ccccc3F)c3ccccc3S2)cc(OC)c1OC (stereo unspecified),AC50,[1],"20 µM [falling, partial curve]"
O=C(Nc1ccc(F)cc1F)c1cc(-c2ccc3c(c2)OCO3)on1,AC50,[1],"10 µM [falling, partial curve]"
Cc1cc(C)cc(OCc2ccc(C(=O)O)o2)c1,AC50,[1],"15.8 µM [falling, partial curve]"
Cc1ccc(CCNC(=O)c2ccc(CSc3nc4ccncc4n3Cc3ccc(F)cc3)cc2)cc1,AC50,[1],"12.6 µM [falling, partial curve]"
COC(=O)c1ccccc1NC(=O)CCc1c(C)nc2cc(-c3ccc(Cl)cc3)nn2c1C,AC50,[1],"0.0251 µM [falling, full curve]"
Cc1cccc(OCC(=O)Nc2cccc(-c3nc4ccccc4s3)c2)c1,AC50,[1],"6.31 µM [falling, partial curve]"
CC(=O)c1cc(-c2ccc(F)cc2)n(CCC(=O)NC2CCCCC2)c1C,AC50,[1],"3.16 µM [rising, single point]"
Cc1cccc(N=c2oc3cc(O)ccc3cc2C(N)=O)c1,AC50,[1],"0.00794 µM [falling, full curve]"
CC(C)CNc1cc(NC2CCCCC2)c2c3c(onc13)-c1ccccc1C2=O,AC50,[1],"25.1 µM [falling, partial curve, poor fit]"
Cc1ccc(Cl)cc1N1CCN(C(=O)c2cn(C)c3ccc(S(=O)(=O)N4CCCCC4)cc3c2=O)CC1,AC50,[1],"20 µM [falling, single point]"
CSc1ccc(CCNC(=O)CCc2c(C)nc3c4cccnc4nn3c2C)cc1,AC50,[1],"20 µM [falling, partial curve]"
COc1cccc(CNCc2c(C(=O)O)c(C)n(Cc3ccc(F)cc3Cl)c2C)c1OC,AC50,[1],"25.1 µM [falling, single point]"
O=C(Nc1ccc(F)c(F)c1)c1ccc(F)c(S(=O)(=O)N2CCC3(CC2)OCCO3)c1,AC50,[1],"20 µM [falling, partial curve]"
CCSc1nc2sc3c(c2c(=O)n1-c1ccc(C)cc1)CCCC3,AC50,[1],"3.98 µM [falling, full curve]"
O=C(CC1N=C2c3ccccc3N=C(SCc3cccc(F)c3)N2C1=O)NC1CCCCC1 (stereo unspecified),AC50,[1],"1.26 µM [falling, single point]"
Cc1ccccc1OCCn1nc(C(=O)O)c2ccccc2c1=O,AC50,[1],"39.8 µM [falling, single point]"
O=C(Cn1c(=O)n(Cc2ccco2)c(=O)c2sc3ccccc3c21)Nc1ccccc1C(F)(F)F,AC50,[1],"25.1 µM [rising, partial curve] [measured here: IkB-luc green channel]"
CCCc1[nH]nc2c1C(c1cn[nH]c1-c1ccc(F)cc1)C(C#N)=C(N)O2 (stereo unspecified),AC50,[1],"12.6 µM [falling, partial curve]"
Cc1ccc(-n2nc(C)c3c(C)c(CCC(=O)NCc4ccccc4Cl)c(C)nc32)cc1,AC50,[1],"7.94 µM [falling, partial curve]"
CC(=O)NCCNC(=O)c1ccc2c(=O)n(CCc3ccccc3)c(=O)[nH]c2c1,AC50,[1],"0.501 µM [falling, full curve, poor fit]"
Fc1ccc(Cc2cn3cc(-c4ccc(F)cc4)nc3s2)cc1,AC50,[1],"39.8 µM [falling, single point]"
Cc1[nH]n(C(N)=S)c(=O)c1C(c1ccccc1)C(C#N)C#N (stereo unspecified),AC50,[1],"31.6 µM [rising, partial curve] [measured here: IkB-luc green channel]"
COc1ccc(NC(=O)c2ccc3oc(=O)c(S(=O)(=O)c4ccc(F)cc4)cc3c2)c(OC)c1,AC50,measured here: IkB-luc green channel,"15.8 µM [rising, partial curve]"
same,AC50,measured here: control luc red channel,"25.1 µM [falling, partial curve]"
COc1ccc(CC(=O)Nc2ccc(-c3nc4ccccc4s3)c(C)c2)cc1,AC50,[1],"3.98 µM [rising, partial curve]"
Cc1cnc(NC(=O)c2ccc(-c3nc4ccccc4s3)o2)s1,AC50,[1],"25.1 µM [falling, partial curve]"
CCc1nnc(NC(=O)c2ccc(OC)cc2OC)s1,AC50,[1],"12.6 µM [falling, partial curve]"
COC(=O)c1ccc(CSc2nc3ccncc3n2Cc2ccc(F)cc2)cc1,AC50,[1],"3.98 µM [falling, full curve]"
COc1ccc(-c2nnc(SCc3ccccc3)n2N)cc1,AC50,[1],"15.8 µM [falling, partial curve]"
COCC(C)Nc1ncnc2c1cnn2-c1cccc(Cl)c1 (stereo unspecified),AC50,[1],"15.8 µM [falling, partial curve]"
Cc1ccc(Cl)cc1N1CCN(C(=O)c2cc(S(=O)(=O)N3CCCCC3)cn2C)CC1,AC50,[1],"15.8 µM [falling, partial curve]"
O=c1cc(-c2ccccc2)[nH]n1-c1nc2ccccc2s1,AC50,[1],"15.8 µM [falling, partial curve]"
COc1ccc2cc3c(N)nn(C(=O)c4ccc(F)cc4Cl)c3nc2c1,AC50,[1],"10 µM [falling, partial curve]"

# An excerpt of these results, bar-delimited:
smiles | measurement | setting | value
CC(=O)NCCNC(=O)c1ccc2c(=O)n(CCc3ccccc3)c(=O)[nH]c2c1 | AC50 | [1] | 0.501 µM [falling, full curve, poor fit]
Fc1ccc(Cc2cn3cc(-c4ccc(F)cc4)nc3s2)cc1 | AC50 | [1] | 39.8 µM [falling, single point]
